# Data: PubChem BioAssay AID504834 (National Center for Advancing Translational Sciences (NCATS), 2011)
# Screen size: about 320,000 compounds; about 22,000 (6.9%) were called active. Inconclusive means that the source gave no clear call. Such entries were picked first, then a sample of the others. Calls come from the whole dose curve; as a rule, active = well fitted inhibition curve with a large enough effect; inconclusive = small, poorly fitted or top-dose-only effect, or another doubt; inactive = no such curve, though single readings can be large or run the other way. Where the call is inconclusive, the potency comes from a doubtful curve fit.
# Test: Primary qHTS for delayed death inhibitors of the malarial parasite plastid, 96 hour incubation
# Details: P. falciparum luciferase reporter growth; series mostly up to 28.7 µM
# Procedure, shortened: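 Compounds incubated with erythrocytes infected by luciferase-expressing P. falciparum (2% hematocrit, 0.05% parasitemia final) for 96 hours, 37 C in 5% CO2. Growth inhibition scored as decreased luciferase luminescence.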
# Potency is the fitted concentration of half-maximal effect.
row,Compound,Potency
1,Cc1ccc(S(=O)(=O)NNC(=O)CCC(=O)Nc2ccccc2Cl)cc1,"inconclusive: 11.7 µM [inhibitor, single point]"
2,O=S(=O)(c1ccc(SCCOc2ccc(Br)cc2)nc1)N1CCCC1,"inconclusive: 18.5 µM [inhibitor, single point]"
3,O=C(Cc1ccccc1)NCCC1=CCCCC1,"inconclusive: 2.33 µM [inhibitor, full curve, poor fit]"
4,CC(Sc1nc2ccccc2c(=O)n1C)C(=O)Nc1ccc2c(c1)OCCO2 (stereo not drawn),active: 0.165 µM
5,COc1cc(/C=N/N=C/c2cc(OC)c(O)c(OC)c2)cc(OC)c1O,active: 4.15 µM
6,CC(C)C(NC(=S)Nc1ccccc1)C(=O)O (stereo not drawn),"inconclusive: 18.5 µM [inhibitor, single point]"
7,Oc1c(CN2CCCCC2)cc(Br)c2cccnc12,"inconclusive: 0.147 µM [inhibitor, full curve, poor fit]"
8,CCOC(=O)C1(CCc2ccccc2)CCN(Cc2csc(C(C)=O)c2)CC1,"inconclusive: 18.5 µM [inhibitor, partial curve, poor fit]"
9,Cc1cccc(N2CCN(C(=O)c3ccc(CS(=O)Cc4cccc(Cl)c4)o3)CC2)c1C (stereo not drawn),"inconclusive: 18.5 µM [inhibitor, single point]"
10,COc1ccccc1CNC(=S)NC1CCCCC1,"inconclusive: 11.7 µM [inhibitor, single point]"
11,CC1CCCN(CCCNC(=O)c2ccc3c(c2)N(Cc2ccccc2F)C(=O)c2ccccc2S3(=O)=O)C1 (stereo not drawn),"inconclusive: 20.8 µM [inhibitor, partial curve, poor fit]"
12,CCOC(=O)N1CCN(C(=O)C(C)NC(=O)c2ccco2)CC1 (stereo not drawn),"inconclusive: 11.7 µM [inhibitor, single point]"
13,Cc1c(Cl)cccc1NC(=O)CCN1CCC(C(N)=O)CC1,inactive
14,CCCOc1ccc(/C=N/NC(=O)CSCc2ccc([N+](=O)[O-])cc2)cc1OCC,inactive
15,Cc1ccc(OCCC(=O)Nc2ccc(F)c(F)c2)cc1,"inconclusive: 10.4 µM [inhibitor, single point]"
16,COc1ccc(NC(=O)CSCc2cc(=O)n3nc(C4CC4)sc3n2)cc1,"inconclusive: 18.5 µM [inhibitor, single point]"
17,CCOC(=O)c1ccccc1C(=O)OCC,inactive
18,CCc1ccc(OCc2nnc(SCC(=O)NC3CCCCC3)o2)cc1,inactive
19,CCOC(=O)c1c(C)[nH]c(C)c1S(=O)(=O)N(C)CC(=O)N(C)Cc1ccccc1,"inconclusive: 18.5 µM [inhibitor, single point]"
20,CC(C)OC(=O)CSc1nnc(-c2ccccn2)n1-c1ccccc1,"inconclusive: 10.4 µM [inhibitor, single point]"
21,CC(CCc1ccccc1)NC(=O)CCC(=O)N1CCC(C(N)=O)CC1 (stereo not drawn),"inconclusive: 18.5 µM [inhibitor, partial curve, poor fit]"
22,CCOc1ccccc1NC(=O)Nc1ccccn1,"inconclusive: 8.28 µM [inhibitor, partial curve, poor fit]"

# Reprinted at random: 2 compounds from above, in no set order.
row,Compound,Potency
4,CC(Sc1nc2ccccc2c(=O)n1C)C(=O)Nc1ccc2c(c1)OCCO2 (stereo not drawn),active: 0.165 µM
19,CCOC(=O)c1c(C)[nH]c(C)c1S(=O)(=O)N(C)CC(=O)N(C)Cc1ccccc1,"inconclusive: 18.5 µM [inhibitor, single point]"

# Following part.

row,Compound,Potency
1,N=C1C(c2nc(-c3ccc(Cl)cc3)cs2)=C(O)CN1NC(=O)c1ccc(O)cc1,inactive
2,CCOc1ccc(NC(=O)c2ccc(OCC3CCCO3)cc2)cc1S(=O)(=O)N(CC)CC (stereo not drawn),active: 10.4 µM
3,CCc1ccc(/C=C2\SC(=S)N(CCC(=O)N3CCN(C)CC3)C2=O)cc1,inactive
4,COCCCn1c(=O)c2ccccc2n(CC(=O)N2CCCc3ccccc32)c1=O,inactive
5,O=C(O)CCCC(=O)N1CCc2cc(S(=O)(=O)N3CCc4ccccc43)ccc21,"inconclusive: 11.7 µM [inhibitor, single point]"
6,CCOc1ccc(NC(=O)CC2C(=O)N(C)C(=S)N2Cc2ccc3c(c2)OCO3)cc1 (stereo not drawn),"inconclusive: 11.7 µM [inhibitor, single point]"
7,COc1ccc(CC(=O)NCc2cccc(CNC(=O)Cc3ccc(OC)c(OC)c3)c2)cc1OC,active: 8.28 µM
8,O=C(NN1CCOCC1)NC12CC3CC(CC(C3)C1)C2,"inconclusive: 18.5 µM [inhibitor, single point]"
9,CCC(C)(C)NC(=O)c1ccc2c(c1)S(=O)(=O)c1ccccc1C2=O,inactive
10,CCN(CC)C(=O)CSc1nnc(COc2ccccc2)n1N,"inconclusive: 14.7 µM [inhibitor, partial curve, poor fit]"
11,COCCn1c(SCC(=O)Nc2ccc(Cl)cn2)nc2ccccc21,"inconclusive: 13.1 µM [inhibitor, single point]"
12,FC(F)Oc1ccc(-c2c[n+]3c(n2-c2ccccc2)CCCCC3)cc1,"inconclusive: 0.828 µM [inhibitor, full curve]"
13,Cc1ccccc1OCc1nc2ccccc2c(=O)n1/N=C/c1ccco1,"inconclusive: 18.5 µM [inhibitor, single point]"
14,CC(=O)Nc1cccc2c1C(=O)N(c1ccccc1C)C2=O,"inconclusive: 0.522 µM [inhibitor, full curve, poor fit]"
15,Cc1ccc(S(=O)(=O)N/N=C\c2cn(CC(N)=O)c3ccccc23)cc1C,inactive
16,COc1ccc(C2c3ccsc3CCN2C(=O)C(C)(C)C)cc1 (stereo not drawn),"inconclusive: 10.4 µM [inhibitor, single point]"
17,CCN(CC)C(=O)n1c(Cc2ccccc2)nc2ccccc21,"inconclusive: 18.5 µM [inhibitor, single point]"
18,CCOC(=O)C(NC(=O)CCl)(Nc1sc(C)c(CC)c1C#N)C(F)(F)F (stereo not drawn),"inconclusive: 8.28 µM [inhibitor, partial curve, poor fit]"
19,O=C(Nc1ccc(C(F)(F)F)cc1)OC1CN2CCC1CC2 (stereo not drawn),"inconclusive: 18.5 µM [inhibitor, single point]"
20,O=C1c2ccccc2C(=O)N1CCC#Cc1ccc2cc(C3(O)CCCCC3)oc(=O)c2c1,"inconclusive: 11.7 µM [inhibitor, single point]"
21,Brc1ccc(-c2noc(CCc3ccccc3)n2)o1,"inconclusive: 14.7 µM [inhibitor, partial curve, poor fit]"
